Consider 13 molecules from publication PMC4140647.

By UniProt entry, the sequences of proteins in these tests, tags left out. Where a name states a change or a piece, a line headed by the entry shows the natural chain unless it says otherwise.
UniProt F4JLJ9: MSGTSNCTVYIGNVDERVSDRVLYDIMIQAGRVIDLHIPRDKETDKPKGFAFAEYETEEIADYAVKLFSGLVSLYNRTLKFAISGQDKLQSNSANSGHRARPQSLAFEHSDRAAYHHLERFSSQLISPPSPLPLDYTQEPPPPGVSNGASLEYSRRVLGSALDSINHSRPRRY
UniProt Q9ZUI4: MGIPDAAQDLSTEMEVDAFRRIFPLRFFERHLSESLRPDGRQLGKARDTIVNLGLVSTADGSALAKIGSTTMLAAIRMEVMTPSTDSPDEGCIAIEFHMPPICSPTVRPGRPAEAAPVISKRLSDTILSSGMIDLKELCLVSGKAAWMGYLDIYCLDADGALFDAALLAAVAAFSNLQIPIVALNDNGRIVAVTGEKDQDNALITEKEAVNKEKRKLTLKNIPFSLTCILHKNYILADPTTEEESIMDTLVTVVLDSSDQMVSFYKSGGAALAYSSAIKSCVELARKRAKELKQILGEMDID
UniProt F4KBK4: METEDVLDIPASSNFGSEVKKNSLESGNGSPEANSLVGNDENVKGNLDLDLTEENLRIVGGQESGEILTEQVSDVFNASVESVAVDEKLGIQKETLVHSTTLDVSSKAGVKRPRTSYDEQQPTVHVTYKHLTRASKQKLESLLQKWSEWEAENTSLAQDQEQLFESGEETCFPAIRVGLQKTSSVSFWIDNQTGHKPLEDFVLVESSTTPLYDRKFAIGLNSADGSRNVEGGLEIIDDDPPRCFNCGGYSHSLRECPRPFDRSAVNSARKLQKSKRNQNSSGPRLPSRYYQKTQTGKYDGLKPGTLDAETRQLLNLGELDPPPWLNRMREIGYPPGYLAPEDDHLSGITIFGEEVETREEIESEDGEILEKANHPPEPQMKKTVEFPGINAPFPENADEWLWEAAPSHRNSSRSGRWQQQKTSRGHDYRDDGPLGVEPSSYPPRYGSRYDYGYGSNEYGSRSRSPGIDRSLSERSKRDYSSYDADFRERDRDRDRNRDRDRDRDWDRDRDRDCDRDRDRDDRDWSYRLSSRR
UniProt F4JFM9: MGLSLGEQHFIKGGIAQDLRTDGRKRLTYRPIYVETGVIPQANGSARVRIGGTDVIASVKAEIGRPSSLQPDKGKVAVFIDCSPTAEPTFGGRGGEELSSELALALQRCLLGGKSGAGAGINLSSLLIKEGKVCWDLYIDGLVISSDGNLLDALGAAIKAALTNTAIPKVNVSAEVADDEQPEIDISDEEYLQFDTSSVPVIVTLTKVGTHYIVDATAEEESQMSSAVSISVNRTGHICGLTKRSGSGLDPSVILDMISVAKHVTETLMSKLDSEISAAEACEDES

No constants are given. Whether binding was seen depends on the method and setting. In cells and extracts the contact can be indirect. A yes stands for co-enrichment or nearness to the bait. Other partners may have been found. For some assays here: No binding means not detected with the bait. Sequences can lack the tags named with a protein.

Assay [1] has as its target T1, HEN2-GFP (Arabidopsis thaliana) (UniProt Q9ZVW2).
T1 sequence: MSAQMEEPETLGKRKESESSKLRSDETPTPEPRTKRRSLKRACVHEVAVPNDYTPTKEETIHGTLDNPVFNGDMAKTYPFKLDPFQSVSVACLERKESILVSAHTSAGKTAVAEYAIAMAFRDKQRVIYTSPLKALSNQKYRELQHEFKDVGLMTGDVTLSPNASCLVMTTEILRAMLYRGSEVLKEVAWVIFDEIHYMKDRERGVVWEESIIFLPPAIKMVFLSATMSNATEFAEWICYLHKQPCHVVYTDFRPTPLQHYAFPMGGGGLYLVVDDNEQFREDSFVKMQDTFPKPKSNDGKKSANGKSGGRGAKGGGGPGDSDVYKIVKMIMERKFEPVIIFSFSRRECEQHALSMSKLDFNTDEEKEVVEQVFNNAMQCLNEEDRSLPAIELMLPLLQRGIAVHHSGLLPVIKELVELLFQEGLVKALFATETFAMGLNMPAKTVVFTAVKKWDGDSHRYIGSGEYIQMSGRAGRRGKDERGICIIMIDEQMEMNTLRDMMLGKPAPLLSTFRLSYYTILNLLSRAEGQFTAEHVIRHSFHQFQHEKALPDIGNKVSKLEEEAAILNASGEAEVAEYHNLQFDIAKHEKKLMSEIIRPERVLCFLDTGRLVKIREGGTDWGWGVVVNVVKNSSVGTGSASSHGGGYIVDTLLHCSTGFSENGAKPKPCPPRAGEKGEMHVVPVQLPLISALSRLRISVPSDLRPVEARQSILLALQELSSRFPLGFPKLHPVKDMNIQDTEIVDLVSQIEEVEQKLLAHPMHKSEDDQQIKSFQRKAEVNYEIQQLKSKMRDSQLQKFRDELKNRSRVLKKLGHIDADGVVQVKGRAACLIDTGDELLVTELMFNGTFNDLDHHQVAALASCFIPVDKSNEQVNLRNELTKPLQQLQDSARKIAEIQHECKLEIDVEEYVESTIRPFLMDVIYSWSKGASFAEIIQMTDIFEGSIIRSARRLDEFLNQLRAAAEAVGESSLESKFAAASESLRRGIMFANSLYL
In words: affinity purification with mass spectrometry; HEN2-GFP (hen2 background) extracted from flowers, held on anti-GFP magnetic microparticles (MACS), 50 mM NaCl; LC-MS/MS; duplicates crossed, proteins of mock IPs excluded.

The target in assay [2] is T1, HEN2-GFP (Arabidopsis thaliana). In words: affinity purification with mass spectrometry; HEN2-GFP (hen2 background) extracted from flowers, held on anti-GFP magnetic microparticles (MACS), 150 mM NaCl; LC-MS/MS; duplicates crossed, proteins of mock IPs excluded.
Assay [3] addresses T2, AtMTR4-GFP (Arabidopsis thaliana) (UniProt Q9XIF2).
T2 sequence: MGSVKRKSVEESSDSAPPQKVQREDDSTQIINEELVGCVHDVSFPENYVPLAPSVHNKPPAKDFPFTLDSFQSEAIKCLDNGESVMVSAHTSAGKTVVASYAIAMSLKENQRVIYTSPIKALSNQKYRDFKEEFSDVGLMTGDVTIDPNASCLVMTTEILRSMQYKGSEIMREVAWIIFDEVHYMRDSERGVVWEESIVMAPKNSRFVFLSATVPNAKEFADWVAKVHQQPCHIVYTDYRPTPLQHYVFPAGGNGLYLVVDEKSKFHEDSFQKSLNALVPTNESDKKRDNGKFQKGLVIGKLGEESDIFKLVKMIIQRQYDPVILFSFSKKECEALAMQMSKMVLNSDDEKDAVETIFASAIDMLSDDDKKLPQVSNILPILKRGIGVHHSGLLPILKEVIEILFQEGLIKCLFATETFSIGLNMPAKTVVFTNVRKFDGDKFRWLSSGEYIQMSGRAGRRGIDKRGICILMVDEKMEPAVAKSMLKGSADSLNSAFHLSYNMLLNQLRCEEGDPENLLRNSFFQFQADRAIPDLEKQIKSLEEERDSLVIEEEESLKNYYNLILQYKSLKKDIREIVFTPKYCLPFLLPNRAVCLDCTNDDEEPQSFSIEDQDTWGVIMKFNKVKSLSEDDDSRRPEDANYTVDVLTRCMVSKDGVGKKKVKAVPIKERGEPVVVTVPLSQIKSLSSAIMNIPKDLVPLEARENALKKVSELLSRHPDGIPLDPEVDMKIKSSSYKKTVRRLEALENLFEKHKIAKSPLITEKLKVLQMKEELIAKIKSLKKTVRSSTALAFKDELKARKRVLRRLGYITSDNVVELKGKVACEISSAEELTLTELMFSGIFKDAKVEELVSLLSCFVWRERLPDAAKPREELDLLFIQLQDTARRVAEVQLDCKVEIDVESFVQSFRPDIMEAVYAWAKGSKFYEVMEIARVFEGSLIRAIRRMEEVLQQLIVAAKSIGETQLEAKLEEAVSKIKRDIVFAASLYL
In words: affinity purification with mass spectrometry; AtMTR4-GFP (own promoter, mtr4 background) extracted from flowers, held on anti-GFP magnetic microparticles (MACS), SDS omitted from washing buffers; LC-MS/MS; triplicates crossed, proteins of mock IPs excluded.

The target of assay [4] is T1, HEN2-GFP (Arabidopsis thaliana). Description: affinity purification with mass spectrometry; HEN2-GFP (hen2 background) extracted from flowers, held on anti-GFP magnetic microparticles (MACS), 150 mM NaCl; LC-MS/MS; duplicates crossed, proteins of mock IPs excluded. This is another data set of the same source.

In the case of “RBM7 homologue (AT4G10110) (from UniProt F4JLJ9)”, the binding result in assay [1] and in assay [2] was “binds” each time.

As for ZCCHC8 homologue (AT1G67210), the binding entry in assay [1] and in assay [2] was “binds” throughout.

For RRP43 (from UniProt Q9ZUI4), the binding entry in assay [3] was “binds”; in assay [1] it was “binds”; in assay [2] it was “no binding (only 150 mM NaCl)”.

Turning to CSL4, the binding result in assay [3] was “binds”; in assay [1], “binds”; in assay [2], “no binding (only 150 mM NaCl)”.

As for “ZCCHC8 homologue (AT5G38600) (from UniProt F4KBK4)”, the binding entry in assay [1] and in assay [2] was “binds” in each case.

Consider RRP40, for which the binding entry in assay [3] is reported as “binds”; in assay [1], “binds”; in assay [2] it was “no binding (only 150 mM NaCl)”.

In the case of RRP42 (from UniProt F4JFM9), the binding entry in assay [3] is recorded as “binds”; in assay [1], “binds”; in assay [2], “no binding (only 150 mM NaCl)”.

B1: RRP46 (protein, UniProt Q9LX74 1-239)
chain: MEIDREDGRTPNQLRPLACSRNILHRPHGSASWSQGDTKVLAAVYGPKAGTKKNENAEKACFEVIWKPKSGQIGKVEKEYEMILKRTIQSICVLTVNPNTTTSVIIQVVHDDGSLLPCAINAACAALVDAGIPMKHLAVAICCCLAENGYLVLDPNKLEEKKMTAFAYLVFPNTTLSVLPEGSSVAEGEPVEHGIITSITHGVMSVDDYFLCVENGRAATASLSAFFRKNFQQSSSKAG
Turning to B1, the binding result in assay [3] was “binds”; in assay [1], “binds”; in assay [4], “no binding (only 150 mM NaCl)”.

B2: MAGO (protein, UniProt O23676 1-150)
chain: MAAEEATEFYLRYYVGHKGKFGHEFLEFEFREDGKLRYANNSNYKNDTIIRKEVFLTPAVLKECKRIVSESEILKEDDNNWPEPDRVGKQELEIVLGNEHISFATSKIGSLVDCQSSNDPEGLRIFYYLVQDLKCLVFSLISLHFKIKPI
Regarding B2, the binding result in assay [1] was “binds”.

B3: MTR3 (protein, UniProt A2RVK7 1-256)
chain: MAAKPGAATPTYSPKIVGRSRLPIFKDSDLDWSRPDGRGFHQCRPALLQTGAVSSASGSAYAEFGNTKVIVSVFGPRESKKAMVYSDVGRLNCNVSYTNFASPTLGQGTDHKEYSSMLHKALEGVIMMETFPKTTVDVFALVLESGGSDLSVLISCASLALADAGIMMYDLITAVSVSCIGKSLMIDPVTEEEGCEDGSFMMTCMPSRYEITQLTITGEWTTPNINEAMQLCLDASSKLGEIMRDCLKQSASASDE
On to B3, for which the figures for the binding result in assay [3], in assay [1] and in assay [4] were “binds”, “binds” and “no binding (only 150 mM NaCl)”, respectively.

B4: RRP41 (protein, UniProt Q9SP08 1-241)
chain: MEYVNPEGLRLDGRRFNEMRQIVAEVGVVSKADGSAVFEMGNTKVIAAVYGPREIQNKSQQKKNDHAVVLCEYSMAQFSTGDRRRQKFDRRSTELSLVIRQTMEACILTELMPHSQIDIFLQVLQADGGTRSACINAATLALADAGIPMRDLAVSCSAGYLNSTPLLDLNYVEDSAGGADVTVGILPKLDKVSLLQMDAKLPMETFETVFALASEGCKAIAERIREVLQENTKQLEYRRAA
Regarding B4, the binding entry was “binds” in assay [3], “binds” in assay [1] and “no binding (only 150 mM NaCl)” in assay [4].

B5: CBP20 (protein, UniProt Q9XFD1 1-257)
chain: MASLFKEQAKLSAYRDRRFSGTQEEFDEALRASTTVYIGNVSFYTTEEQLYELFSRAGEIKKIIMGLDKNTKTPCGFCFVLFYSREDTEDAVKYISGTILDDRPIRVDFDWGFQEGRQWGRGRSGGQVRDEYRTDYDPARGGYGKLVQKELEAQRQLVDYGTGSLGAYPQAAPTNYGNGRRGGGNYGQGGQNRHGRGDYHRKRQRDDDRYGRDNSRRNTDHESRRDTDSDMRPEKNPRFRESGDSDDDGEDDRKRRS
Turning to B5, the binding entry in assay [1] was “binds”.

B6: RRP4 (protein, UniProt Q9ZVT7 1-322)
chain: MVMRKLQLPLSQTQKVRFERAIERLQSLSSSANSDASVIVTDSIPVNHDDAFLKGHGTSEVDGELLATVCGVVERVDKLVYVRTLRARYKPEVGDIVVGRVIEVAQKRWRVELNFNQDGVLMLSSMNMPDGIQRRRTSVDELNMRNIFVEHDVVCAEVRNFQHDGSLQLQARSQKYGKLEKGQLLKVDPYLVKRSKHHFHYVESLGIDLIIGCNGFIWVGEHVEVRDPMAIDDQKDEEMISSSSTGKEQSHIPLETRQTICRIGNAIRVLSNLGFTVTLEVIMETVNLSNSKNIDIHDMLGSEFHVVVAENEAERRRTKRKK
As for B6, the binding result in assay [3] was “binds”; in assay [1] it was “binds”; in assay [4], “no binding (only 150 mM NaCl)”.
